In the supplement of paper PMC7661543:
The effect of the compound repeats well; differences between the knockouts mostly do not.

Test system: BT-20
Test: relative cell number vs DMSO control (72 h) (% of DMSO); higher = less growth inhibition (more cells)
Method: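 QMAP-Seq: a pool of 5 breast cancer cell lines (ZR-75-1, SKBR3, HCC-38, MDA-MB-231, BT-20), each carrying 12 doxycycline-inducible Cas9 sgRNA perturbations (11 knockouts plus non-targeting sgNT), was treated with compounds for 72 h at four 10-fold doses (10 nM-10 uM or 1 nM-1 uM range). Barcodes were amplified and sequenced, and cell number was interpolated from 293T spike-in standard curves. The result is expressed as % of the median of DMSO wells. Two biological replicates.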

COc1cc(C(=O)N2CCC(N3CCN(C)CC3)CC2)ccc1Nc1ncc2c(n1)N(C)c1ccccc1C(=O)N2C [LRRK2IN1]
Conditions	relative cell number
sgRNA knockout: sgATF3, 10 nM	110
sgRNA knockout: sgATF3, 100 nM	90.2
sgRNA knockout: sgATF3, 1000 nM	86.5
sgRNA knockout: sgATF3, 10000 nM	41.8
sgRNA knockout: sgATF4, 10 nM	116
sgRNA knockout: sgATF4, 100 nM	101
sgRNA knockout: sgATF4, 1000 nM	82.5
sgRNA knockout: sgATF4, 10000 nM	42
sgRNA knockout: sgATF6, 10 nM	115
sgRNA knockout: sgATF6, 100 nM	94.1
sgRNA knockout: sgATF6, 1000 nM	77.3
sgRNA knockout: sgATF6, 10000 nM	37.3
sgRNA knockout: sgATG7, 10 nM	116
sgRNA knockout: sgATG7, 100 nM	89.7
sgRNA knockout: sgATG7, 1000 nM	96.2
sgRNA knockout: sgATG7, 10000 nM	51.5
sgRNA knockout: sgERN1, 10 nM	125
sgRNA knockout: sgERN1, 100 nM	97.7
sgRNA knockout: sgERN1, 1000 nM	78.9
sgRNA knockout: sgERN1, 10000 nM	49.1
sgRNA knockout: sgHSF1, 10 nM	109
sgRNA knockout: sgHSF1, 100 nM	94.4
sgRNA knockout: sgHSF1, 1000 nM	81.8
sgRNA knockout: sgHSF1, 10000 nM	53.6
sgRNA knockout: sgHSF2, 10 nM	124
sgRNA knockout: sgHSF2, 100 nM	103
sgRNA knockout: sgHSF2, 1000 nM	85.4
sgRNA knockout: sgHSF2, 10000 nM	42.1
sgRNA knockout: sgKEAP1, 10 nM	105.27
sgRNA knockout: sgKEAP1, 100 nM	93.5
sgRNA knockout: sgKEAP1, 1000 nM	77.23
sgRNA knockout: sgKEAP1, 10000 nM	48.7
sgRNA knockout: sgNFE2L2, 10 nM	119
sgRNA knockout: sgNFE2L2, 100 nM	83.8
sgRNA knockout: sgNFE2L2, 1000 nM	92.7
sgRNA knockout: sgNFE2L2, 10000 nM	48.6
sgRNA knockout: sgSLC35F2, 10 nM	108
sgRNA knockout: sgSLC35F2, 100 nM	95.8
sgRNA knockout: sgSLC35F2, 1000 nM	72.2
sgRNA knockout: sgSLC35F2, 10000 nM	46.8
sgRNA knockout: sgXBP1, 10 nM	121
sgRNA knockout: sgXBP1, 100 nM	86.2
sgRNA knockout: sgXBP1, 1000 nM	79.845
sgRNA knockout: sgXBP1, 10000 nM	47.919

C[C@@]1(C(=O)Nc2ccc(F)nc2)CCCN1c1nc(Nc2cc(C3CC3)n[nH]2)c2cccn2n1
Conditions	relative cell number
sgRNA knockout: sgATF3, 10 nM	87.8
sgRNA knockout: sgATF3, 100 nM	90.5
sgRNA knockout: sgATF3, 1000 nM	75.6
sgRNA knockout: sgATF3, 10000 nM	58.5
sgRNA knockout: sgATF4, 10 nM	98.5
sgRNA knockout: sgATF4, 100 nM	93.8
sgRNA knockout: sgATF4, 1000 nM	89
sgRNA knockout: sgATF4, 10000 nM	53.9
sgRNA knockout: sgATF6, 10 nM	86.33
sgRNA knockout: sgATF6, 100 nM	67.3
sgRNA knockout: sgATF6, 1000 nM	76.3
sgRNA knockout: sgATF6, 10000 nM	55.1
sgRNA knockout: sgATG7, 10 nM	102
sgRNA knockout: sgATG7, 100 nM	97
sgRNA knockout: sgATG7, 1000 nM	85.7
sgRNA knockout: sgATG7, 10000 nM	54.7
sgRNA knockout: sgERN1, 10 nM	75.6
sgRNA knockout: sgERN1, 100 nM	82.4
sgRNA knockout: sgERN1, 1000 nM	87.1
sgRNA knockout: sgERN1, 10000 nM	63.5
sgRNA knockout: sgHSF1, 10 nM	95.8
sgRNA knockout: sgHSF1, 100 nM	83.6
sgRNA knockout: sgHSF1, 1000 nM	75.5
sgRNA knockout: sgHSF1, 10000 nM	57.4
sgRNA knockout: sgHSF2, 10 nM	79.2
sgRNA knockout: sgHSF2, 100 nM	87.9
sgRNA knockout: sgHSF2, 1000 nM	79.6
sgRNA knockout: sgHSF2, 10000 nM	67.9
sgRNA knockout: sgKEAP1, 10 nM	86.4
sgRNA knockout: sgKEAP1, 100 nM	83.2
sgRNA knockout: sgKEAP1, 1000 nM	68.1
sgRNA knockout: sgKEAP1, 10000 nM	56.27
sgRNA knockout: sgNFE2L2, 10 nM	91.2
sgRNA knockout: sgNFE2L2, 100 nM	75.6
sgRNA knockout: sgNFE2L2, 1000 nM	70.8
sgRNA knockout: sgNFE2L2, 10000 nM	51.1
sgRNA knockout: sgSLC35F2, 10 nM	103
sgRNA knockout: sgSLC35F2, 100 nM	89.8
sgRNA knockout: sgSLC35F2, 1000 nM	91.8
sgRNA knockout: sgSLC35F2, 10000 nM	60.5
sgRNA knockout: sgXBP1, 10 nM	87.6
sgRNA knockout: sgXBP1, 100 nM	85.6
sgRNA knockout: sgXBP1, 1000 nM	75.8
sgRNA knockout: sgXBP1, 10000 nM	67.2

C=C1C[C@@H]2[C@H](CC[C@]3(C)C(=O)CC[C@@H]23)[C@@]2(C)C=CC(=O)C=C12 [Exemestane]
Conditions	relative cell number
sgRNA knockout: sgATF3, 10 nM	95.6
sgRNA knockout: sgATF3, 100 nM	88.25
sgRNA knockout: sgATF3, 1000 nM	115
sgRNA knockout: sgATF3, 10000 nM	96
sgRNA knockout: sgATF4, 10 nM	111
sgRNA knockout: sgATF4, 100 nM	99.6
sgRNA knockout: sgATF4, 1000 nM	108
sgRNA knockout: sgATF4, 10000 nM	108
sgRNA knockout: sgATF6, 10 nM	94
sgRNA knockout: sgATF6, 100 nM	82.9
sgRNA knockout: sgATF6, 1000 nM	84.3
sgRNA knockout: sgATF6, 10000 nM	103
sgRNA knockout: sgATG7, 10 nM	105
sgRNA knockout: sgATG7, 100 nM	87.1
sgRNA knockout: sgATG7, 1000 nM	100
sgRNA knockout: sgATG7, 10000 nM	105
sgRNA knockout: sgERN1, 10 nM	103
sgRNA knockout: sgERN1, 100 nM	84.3
sgRNA knockout: sgERN1, 1000 nM	105
sgRNA knockout: sgERN1, 10000 nM	109
sgRNA knockout: sgHSF1, 10 nM	107
sgRNA knockout: sgHSF1, 100 nM	72.9
sgRNA knockout: sgHSF1, 1000 nM	126
sgRNA knockout: sgHSF1, 10000 nM	102
sgRNA knockout: sgHSF2, 10 nM	96.5
sgRNA knockout: sgHSF2, 100 nM	89.4
sgRNA knockout: sgHSF2, 1000 nM	109
sgRNA knockout: sgHSF2, 10000 nM	109
sgRNA knockout: sgKEAP1, 10 nM	103
sgRNA knockout: sgKEAP1, 100 nM	87.6
sgRNA knockout: sgKEAP1, 1000 nM	102
sgRNA knockout: sgKEAP1, 10000 nM	95.09
sgRNA knockout: sgNFE2L2, 10 nM	116
sgRNA knockout: sgNFE2L2, 100 nM	83.9
sgRNA knockout: sgNFE2L2, 1000 nM	123
sgRNA knockout: sgNFE2L2, 10000 nM	102
sgRNA knockout: sgSLC35F2, 10 nM	93
sgRNA knockout: sgSLC35F2, 100 nM	89.8
sgRNA knockout: sgSLC35F2, 1000 nM	91.6
sgRNA knockout: sgSLC35F2, 10000 nM	96.4
sgRNA knockout: sgXBP1, 10 nM	115
sgRNA knockout: sgXBP1, 100 nM	89.9
sgRNA knockout: sgXBP1, 1000 nM	113
sgRNA knockout: sgXBP1, 10000 nM	119
